Assay results published in publication PMC7261414, “A complex comprising C15ORF41 and Codanin-1: the products of two genes mutated in congenital dyserythropoietic anaemia type I (CDA-I)” (Biochemical Journal, 2020).

Tests used:
Test in all cases: affinity purification with mass spectrometry; GFP-Trap affinity beads, ~40 mg of lysate of HEK293 cells stably expressing the GFP-tagged proteins; SDS-PAGE, colloidal Coomassie, gel slices, LC-MS/MS
[1] = molecular target: T1, GFP-C15ORF41 D196A (N-terminally GFP-tagged C15ORF41 with Asp196 mutated to alanine) (human) (UniProt Q9Y2V0)
T1 sequence: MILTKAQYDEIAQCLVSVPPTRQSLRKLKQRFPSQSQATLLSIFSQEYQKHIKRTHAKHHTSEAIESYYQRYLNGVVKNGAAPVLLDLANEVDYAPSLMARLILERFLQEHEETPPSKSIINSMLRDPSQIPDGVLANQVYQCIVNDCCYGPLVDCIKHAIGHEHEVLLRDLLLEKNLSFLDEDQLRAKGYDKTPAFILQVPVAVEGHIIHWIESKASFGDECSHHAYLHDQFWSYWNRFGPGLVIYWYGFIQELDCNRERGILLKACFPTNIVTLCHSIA

[2] = molecular target: T2, GFP-C15ORF41 (wild-type C15ORF41 tagged with GFP at the N-terminus) (human) (UniProt Q9Y2V0)
T2 sequence: T1 sequence with A196D

[3] = molecular target: T3, C15ORF41-GFP (wild-type C15ORF41 tagged with GFP at the C-terminus) (human) (UniProt Q9Y2V0)
T3 sequence: T1 sequence with A196D

- binding [1]: binds
- binding [2]: binds
- binding [3]: binds
B1: Codanin-1, endogenous in HEK293 cells (protein, UniProt Q8IWY9 1-1227)
chain: MAAVLESLLREEVSVAAVVRWIARSTQGSEDNAGEAAALSSLRALRKEFVPFLLNFLREQSSRVLPQGPPTPAKTPGASAALPGRPGGPPRGSRGARSQLFPPTEAQSTAAEAPLARRGGRRRGPGPARERGGRGLEEGVSGESLPGAGGRRLRGSGSPSRPSLTLSDPPNLSNLEEFPPVGSVPPGPTGTKPSRRINPTPVSEERSLSKPKTCFTSPPISCVPSSQPSALDTSPWGLGLPPGCRSLQEEREMLRKERSKQLQQSPTPTCPTPELGSPLPSRTGSLTDEPADPARVSSRQRLELVALVYSSCIAENLVPNLFLELFFVFQLLTARRMVTAKDSDPELSPAVLDSLESPLFQSIHDCVFFAVQVLECHFQVLSNLDKGTLKLLAENERLLCFSPALQGRLRAAYEGSVAKVSLVMPPSTQAVSFQPETDNRANFSSDRAFHTFKKQRDVFYEVLREWEDHHEEPGWDFEKGLGSRIRAMMGQLSAACSHSHFVRLFQKQLLQMCQSPGGAGGTVLGEAPDVLSMLGADKLGRLWRLQERLMAPQSSGGPCPPPTFPGCQGFFRDFILSASSFQFNQHLMDSLSLKIQELNGLALPQHEPNDEDGESDVDWQGERKQFAVVLLSLRLLAKFLGFVAFLPYRGPEPPPTGELQDSILALRSQVPPVLDVRTLLQRGLQARRAVLTVPWLVEFLSFADHVVPLLEYYRDIFTLLLRLHRSLVLSQESEGKMCFLNKLLLLAVLGWLFQIPTVPEDLFFLEEGPSYAFEVDTVAPEHGLDNAPVVDQQLLYTCCPYIGELRKLLASWVSGSSGRSGGFMRKITPTTTTSLGAQPSQTSQGLQAQLAQAFFHNQPPSLRRTVEFVAERIGSNCVKHIKATLVADLVRQAESLLQEQLVTQGEEGGDPAQLLEILCSQLCPHGAQALALGREFCQRKSPGAVRALLPEETPAAVLSSAENIAVGLATEKACAWLSANITALIRREVKAAVSRTLRAQGPEPAARGERRGCSRACEHHAPLPSHLISEIKDVLSLAVGPRDPDEGVSPEHLEQLLGQLGQTLRCRQFLCPPAEQHLAKCSVELASLLVADQIPILGPPAQYRLERGQARRLLHMLLSLWKEDFQGPVPLQLLLSPRNVGLLADTRPREWDLLLFLLRELVEKGLMGRMEIEACLGSLHQAQWPGDFAEELATLSNLFLAEPHLPEPQLRACELVQPNRGTVLAQS

Changes are numbered by the printed parent chain. Results are given in words; binding and its absence hold for the method and conditions named. In cells and extracts the contact can be indirect. Here binding means that the protein was enriched with, or labelled near, the bait; the list need not be complete. Sequences can lack the tags named with a protein.
